Test results as given in publication PMC10781740.
No constants are given. Whether binding was seen depends on the method and setting. In cells and extracts the contact can be indirect. Some binding calls cover weakened binding; strength is not graded here.

Chains of the proteins cited; added tags and fusions are not shown. Lines headed by an entry give the natural chain unless they say otherwise; changes in a name come on top.
UniProt Q9Y6K9: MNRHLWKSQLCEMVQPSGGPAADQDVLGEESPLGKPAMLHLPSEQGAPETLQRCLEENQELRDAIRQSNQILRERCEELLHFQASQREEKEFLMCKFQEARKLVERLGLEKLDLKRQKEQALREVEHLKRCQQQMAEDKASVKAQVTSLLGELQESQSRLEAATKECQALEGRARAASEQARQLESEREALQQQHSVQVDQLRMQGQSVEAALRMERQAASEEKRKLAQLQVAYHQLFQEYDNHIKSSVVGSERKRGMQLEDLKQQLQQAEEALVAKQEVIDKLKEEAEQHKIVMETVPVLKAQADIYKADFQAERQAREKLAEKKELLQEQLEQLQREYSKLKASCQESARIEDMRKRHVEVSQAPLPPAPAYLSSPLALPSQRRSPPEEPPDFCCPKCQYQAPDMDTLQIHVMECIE
UniProt Q96EP0: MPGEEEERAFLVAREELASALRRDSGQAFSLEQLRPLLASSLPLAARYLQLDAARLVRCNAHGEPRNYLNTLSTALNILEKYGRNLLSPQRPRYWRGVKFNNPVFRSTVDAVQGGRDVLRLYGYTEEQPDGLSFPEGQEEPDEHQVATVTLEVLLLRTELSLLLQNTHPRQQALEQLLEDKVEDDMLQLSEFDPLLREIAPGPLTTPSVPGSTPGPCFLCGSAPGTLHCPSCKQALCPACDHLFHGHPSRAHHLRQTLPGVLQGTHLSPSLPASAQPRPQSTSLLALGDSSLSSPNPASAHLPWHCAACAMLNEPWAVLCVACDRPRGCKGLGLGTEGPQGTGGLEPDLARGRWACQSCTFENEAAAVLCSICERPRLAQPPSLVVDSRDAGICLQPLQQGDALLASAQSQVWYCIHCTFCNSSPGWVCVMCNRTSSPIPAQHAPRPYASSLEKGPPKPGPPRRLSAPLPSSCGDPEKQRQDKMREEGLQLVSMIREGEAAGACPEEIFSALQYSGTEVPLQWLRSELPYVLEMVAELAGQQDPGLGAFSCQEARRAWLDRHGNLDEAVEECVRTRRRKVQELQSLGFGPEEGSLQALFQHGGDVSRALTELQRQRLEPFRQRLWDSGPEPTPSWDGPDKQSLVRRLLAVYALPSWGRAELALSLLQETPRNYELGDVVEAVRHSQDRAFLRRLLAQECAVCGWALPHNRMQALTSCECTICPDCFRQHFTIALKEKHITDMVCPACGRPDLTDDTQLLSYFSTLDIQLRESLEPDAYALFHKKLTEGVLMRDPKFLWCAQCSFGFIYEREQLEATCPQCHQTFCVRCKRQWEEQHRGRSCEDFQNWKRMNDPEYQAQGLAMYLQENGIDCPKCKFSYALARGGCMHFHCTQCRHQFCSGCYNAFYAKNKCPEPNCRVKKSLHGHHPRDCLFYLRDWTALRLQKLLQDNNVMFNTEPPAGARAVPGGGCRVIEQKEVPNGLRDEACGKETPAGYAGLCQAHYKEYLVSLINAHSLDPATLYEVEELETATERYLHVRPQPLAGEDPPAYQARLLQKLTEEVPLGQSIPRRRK

B1: Shank-associated RH domain-interacting protein (SHARPIN) (protein, UniProt Q9H0F6 1-387)
chain: MAPPAGGAAAAASDLGSAAVLLAVHAAVRPLGAGPDAEAQLRRLQLSADPERPGRFRLELLGAGPGAVNLEWPLESVSYTIRGPTQHELQPPPGGPGTLSLHFLNPQEAQRWAVLVRGATVEGQNGSKSNSPPALGPEACPVSLPSPPEASTLKGPPPEADLPRSPGNLTEREELAGSLARAIAGGDEKGAAQVAAVLAQHRVALSVQLQEACFPPGPIRLQVTLEDAASAASAASSAHVALQVHPHCTVAALQEQVFSELGFPPAVQRWVIGRCLCVPERSLASYGVRQDGDPAFLYLLSAPREAPATGPSPQHPQKMDGELGRLFPPSLGLPPGPQPAASSLPSPLQPSWSCPSCTFINAPDRPGCEMCSTQRPCTWDPLAAAST
B2: TBK1 (enzyme, UniProt Q9UHD2 1-729)
chain: MQSTSNHLWLLSDILGQGATANVFRGRHKKTGDLFAIKVFNNISFLRPVDVQMREFEVLKKLNHKNIVKLFAIEEETTTRHKVLIMEFCPCGSLYTVLEEPSNAYGLPESEFLIVLRDVVGGMNHLRENGIVHRDIKPGNIMRVIGEDGQSVYKLTDFGAARELEDDEQFVSLYGTEEYLHPDMYERAVLRKDHQKKYGATVDLWSIGVTFYHAATGSLPFRPFEGPRRNKEVMYKIITGKPSGAISGVQKAENGPIDWSGDMPVSCSLSRGLQVLLTPVLANILEADQEKCWGFDQFFAETSDILHRMVIHVFSLQQMTAHKIYIHSYNTATIFHELVYKQTKIISSNQELIYEGRRLVLEPGRLAQHFPKTTEENPIFVVSREPLNTIGLIYEKISLPKVHPRYDLDGDASMAKAITGVVCYACRIASTLLLYQELMRKGIRWLIELIKDDYNETVHKKTEVVITLDFCIRNIEKTVKVYEKLMKINLEAAELGEISDIHTKLLRLSSSQGTIETSLQDIDSRLSPGGSLADAWAHQEGTHPKDRNVEKLQVLLNCMTEIYYQFKKDKAERRLAYNEEQIHKFDKQKLYYHATKAMTHFTDECVKKYEAFLNKSEEWIRKMLHLRKQLLSLTNQCFDIEEEVSKYQEYTNELQETLPQKMFTASSGIKHTMTPIYPSSNTLVEMTLGMKKLKEEMEGVVKELAENNHILERFGSLTMDGGLRNVDCL

What was measured:
[1] = biological target: tandem-affinity purification (TAP)-tagged NEMO (UniProt Q9Y6K9); assay: co-IP; Flag-M2 beads on lysates of A549 TAP-NEMO, TAP-HOIP-WT or TAP-HOIP-C885S rescue cells; cells primed with 100 U/mL IFNα for 24 h, mock or infected with SeV 1:300 (3 h p.i. for TAP-NEMO; indicated times for TAP-HOIP); 100 mM NaCl, 40 mM Tris-HCl pH 7.5, 1 mM CaCl2, 1 mM MgCl2, with 1% Triton X-100 and 0.1% SDS for the sonicated pellet; 16 h at 4 °C; Western blot
[2] = biological target: tandem-affinity purification (TAP)-tagged HOIP (UniProt Q96EP0); assay: as above
TAP-HOIP-C885S = TAP-HOIP-C885S (UniProt Q96EP0); assay: as above
[3] = biological target: tandem-affinity purification (TAP)-tagged NEMO (UniProt Q9Y6K9); assay: co-IP; as a1, Flag-M2 IP of TAP-NEMO from A549 TAP-NEMO cells at 6 h after SeV infection; Western blot

Binder | binding [1] | binding [2] | binding (TAP-HOIP-C885S) | binding [3]
B1 | binds |  |  | 
B2 | binds | binds | binds | binds
